In publication PMC6579518 one finds binding data, which are given here for 7 molecules.

Amino acid sequences for entries named in this document (tags omitted).
UniProt Q12522: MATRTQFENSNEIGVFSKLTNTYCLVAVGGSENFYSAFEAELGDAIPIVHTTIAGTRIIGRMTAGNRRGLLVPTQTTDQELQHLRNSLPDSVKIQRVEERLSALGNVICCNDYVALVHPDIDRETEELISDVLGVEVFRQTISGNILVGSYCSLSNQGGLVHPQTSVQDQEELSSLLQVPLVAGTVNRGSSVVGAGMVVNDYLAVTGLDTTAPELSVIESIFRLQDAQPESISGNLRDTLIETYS

These are yes or no findings as the source states them, for the method shown. For some of these results: In cells and extracts the contact can be indirect. Some binding calls cover weakened binding; strength is not graded here. For some of these results: Where a sequence is shown, tags or fusion partners need not be part of it.

The target in assay [1] is T1, Lsg1-TAP (tandem affinity purification-tagged GTPase Lsg1) (S. cerevisiae) (UniProt P53145).
T1 sequence: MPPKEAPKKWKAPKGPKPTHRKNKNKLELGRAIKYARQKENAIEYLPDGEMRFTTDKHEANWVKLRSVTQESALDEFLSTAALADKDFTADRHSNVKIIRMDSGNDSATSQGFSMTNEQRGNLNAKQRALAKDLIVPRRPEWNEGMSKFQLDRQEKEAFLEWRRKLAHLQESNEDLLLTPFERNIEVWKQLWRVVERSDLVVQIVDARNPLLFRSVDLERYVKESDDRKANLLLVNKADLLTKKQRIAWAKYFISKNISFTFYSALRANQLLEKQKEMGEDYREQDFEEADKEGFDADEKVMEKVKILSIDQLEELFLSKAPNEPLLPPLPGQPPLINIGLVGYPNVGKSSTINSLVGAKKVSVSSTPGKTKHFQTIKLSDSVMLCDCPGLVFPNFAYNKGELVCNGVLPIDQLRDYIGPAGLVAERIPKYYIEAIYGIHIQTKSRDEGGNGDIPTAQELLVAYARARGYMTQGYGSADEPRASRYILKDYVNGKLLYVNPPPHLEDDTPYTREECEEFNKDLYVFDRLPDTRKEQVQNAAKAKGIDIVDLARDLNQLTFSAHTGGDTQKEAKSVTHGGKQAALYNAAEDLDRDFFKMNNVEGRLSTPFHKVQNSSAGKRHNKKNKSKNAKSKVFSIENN
As to the kind of experiment: pull-down; Lsg1-TAP as bait from cleared S. cerevisiae lysate on rabbit IgG magnetic beads, 4°C, 90 min; washes with LB1 (20 mM HEPES pH 7.5, 10 mM KCl, 2.5 mM MgCl2, 1 mM EGTA) and LB1 with 100 mM NaCl; TEV elution; immunoblotting of purified pre-60S particles against crude extract. A general note: In western blotting, separated proteins are transferred to a membrane and probed.

Assay [2] deals with T1, Lsg1-TAP (tandem affinity purification-tagged GTPase Lsg1) (S. cerevisiae). Briefly: cryo-EM structure; native pre-60S particles purified by Lsg1-TAP from S. cerevisiae, 0.5% glutaraldehyde 10 min 4°C, 40 nM on grids; six states (I-VI) by 3D classification, 3.1-3.9 Å.
Assay [3] addresses eIF6 (yeast Tif6) (S. cerevisiae (endogenous in the Lsg1-TAP strain)) (UniProt Q12522). The assay is described as above.
For assay [4], the target named is T2, Arx1 (S. cerevisiae (endogenous in the Lsg1-TAP strain)) (UniProt Q03862).
T2 sequence: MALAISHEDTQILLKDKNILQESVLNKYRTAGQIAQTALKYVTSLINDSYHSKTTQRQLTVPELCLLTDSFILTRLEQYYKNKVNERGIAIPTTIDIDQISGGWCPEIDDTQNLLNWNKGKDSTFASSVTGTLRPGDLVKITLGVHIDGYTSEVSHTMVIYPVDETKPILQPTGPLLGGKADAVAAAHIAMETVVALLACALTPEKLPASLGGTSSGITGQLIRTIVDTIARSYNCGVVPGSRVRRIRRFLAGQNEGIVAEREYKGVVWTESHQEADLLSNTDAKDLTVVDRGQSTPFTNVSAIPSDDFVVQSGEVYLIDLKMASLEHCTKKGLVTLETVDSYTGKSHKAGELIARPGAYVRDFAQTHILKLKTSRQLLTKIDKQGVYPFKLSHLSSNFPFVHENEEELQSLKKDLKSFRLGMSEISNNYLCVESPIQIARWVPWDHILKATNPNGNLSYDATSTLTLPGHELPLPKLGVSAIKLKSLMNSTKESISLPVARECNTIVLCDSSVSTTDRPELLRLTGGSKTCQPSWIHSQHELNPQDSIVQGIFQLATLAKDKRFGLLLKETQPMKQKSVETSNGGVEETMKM
Briefly: cross-linking; XL-MS: Lsg1-TAP pre-ribosomal particles (tandem affinity purified, BY4741) cross-linked with 1.5 mM DSS d0/d12 in 20 mM HEPES pH 8.3, 5 mM MgCl2; trypsin, LC-MS/MS, xQuest; two biological replicates.

In assay [5] the target is T3, Rei1 (S. cerevisiae (endogenous in the Lsg1-TAP strain)) (UniProt P38344).
T3 sequence: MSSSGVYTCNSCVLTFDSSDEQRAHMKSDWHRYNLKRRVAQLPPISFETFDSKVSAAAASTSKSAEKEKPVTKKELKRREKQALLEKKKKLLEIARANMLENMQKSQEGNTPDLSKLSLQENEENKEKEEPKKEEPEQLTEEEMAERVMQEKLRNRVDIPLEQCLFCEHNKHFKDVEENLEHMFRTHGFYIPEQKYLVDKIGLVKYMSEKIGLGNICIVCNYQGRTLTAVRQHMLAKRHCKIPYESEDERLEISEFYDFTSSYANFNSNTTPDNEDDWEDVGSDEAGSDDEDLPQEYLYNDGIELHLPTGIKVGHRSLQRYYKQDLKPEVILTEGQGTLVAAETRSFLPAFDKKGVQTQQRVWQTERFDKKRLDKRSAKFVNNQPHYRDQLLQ
The description is as above.

The target in assay [6] is T1, Lsg1-TAP (tandem affinity purification-tagged GTPase Lsg1) (S. cerevisiae). The description is as above.
In assay [7] the target is T4, Arx1 (S. cerevisiae (endogenous in the Lsg1-TAP strain)), Q03862.
T4 chain: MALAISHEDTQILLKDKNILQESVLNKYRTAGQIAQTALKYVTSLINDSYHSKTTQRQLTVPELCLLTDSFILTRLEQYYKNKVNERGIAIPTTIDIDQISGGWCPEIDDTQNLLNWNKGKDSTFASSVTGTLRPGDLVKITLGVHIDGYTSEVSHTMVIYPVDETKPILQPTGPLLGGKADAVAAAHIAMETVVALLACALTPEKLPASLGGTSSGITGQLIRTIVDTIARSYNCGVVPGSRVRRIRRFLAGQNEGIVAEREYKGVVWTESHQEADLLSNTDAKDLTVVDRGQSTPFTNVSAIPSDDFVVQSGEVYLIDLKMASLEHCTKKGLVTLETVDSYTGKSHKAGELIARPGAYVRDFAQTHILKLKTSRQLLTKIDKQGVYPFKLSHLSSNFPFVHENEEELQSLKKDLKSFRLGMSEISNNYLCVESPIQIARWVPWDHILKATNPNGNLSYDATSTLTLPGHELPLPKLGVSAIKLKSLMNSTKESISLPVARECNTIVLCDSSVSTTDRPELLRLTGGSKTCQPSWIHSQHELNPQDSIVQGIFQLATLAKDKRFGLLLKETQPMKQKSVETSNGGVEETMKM
The description is as above. The settings on record: remark: other sources report otherwise.

Consider “eIF6 (yeast Tif6) (from UniProt Q12522 1-245)”, for which the binding entry in assay [1] is “binds”.

B1: Reh1 (protein, UniProt Q06709 1-432)
chain: MSSTFFTCNCCVIQFKTSDLQRYHMKTEWHRYNLKRRIANLPPIGAEQFAEKLQISEKEQAENQVDEFGFPVLKPVMNQSNALPQKQKKPIKSKRGRKVGTNLLKRKDRDIAKEKQNRSVSPSGSISSQLSNLTVGTENTNTDYGEDTVSEYGFTSDSNYEYATSDEELDIADKPSDKENEKITITECIYCGKDNKEVERNVKHMFSEHGLFIPERSYLIDLNGLLEFLIKMIVIDHNCLCCNFHGSGLESIRAHMASKRHCRLPYETKEERQLFAPFYDFTYDDHSISKNLQNDRAITSKLSSVYGAKNDEEDGEVDITLVSSENDINANYTTVSIDESGLELTLPTGARLGHRAGQRYYRQNLPSQPNPNESRRTITAADRRMVSGVTEKQYKKGMKKMQQLEKNAINTQIRREIKRVNFQTHYRDELLQ
For the molecule B1, the binding result was “binds” in assay [2], “binds” in assay [3], “no binding” in assay [4] and “no binding” in assay [5].

B2: Nmd3 (nuclear export adaptor) (protein, UniProt P38861 1-518)
chain: MEFTPIDPHQHQNAATLLCCNCGTPIDGSTGLVMCYDCIKLTVDITQGIPREANISFCRNCERFLQPPGQWIRAELESRELLAICLRRLKGLTKVRLVDASFIWTEPHSRRIRIKLTVQGEAMTNTIIQQTFEVEYIVIAMQCPDCARSYTTNTWRATVQIRQKVPHKRTFLFLEQLILKHNAHVDTISISEAKDGLDFFYAQKNHAVKMIDFLNAVVPIKHKKSEELISQDTHTGASTYKFSYSVEIVPICKDDLVVLPKKLAKSMGNISQFVLCSKISNTVQFMDPTTLQTADLSPSVYWRAPFNALADVTQLVEFIVLDVDSTGISRGNRVLADITVARTSDLGVNDQVYYVRSHLGGICHAGDSVMGYFIANSNYNSDLFDGLNIDYVPDVVLVKKLYQRKSKKSRHWKLKRMAKEHKDIDASLDYNSRAQKQEMERAEKDYELFLQELEEDAELRQSVNLYKNREANVPPEEHEMDEDEDEDAPQINIDELLDELDEMTLEDGVENTPVESQQ
For the molecule B2, the binding entry in assay [2], in assay [3] and in assay [1] was “binds” in each case.

B3: ribosomal protein uL16 (protein, UniProt P41805 1-221)
chain: MARRPARCYRYQKNKPYPKSRYNRAVPDSKIRIYDLGKKKATVDEFPLCVHLVSNELEQLSSEALEAARICANKYMTTVSGRDAFHLRVRVHPFHVLRINKMLSCAGADRLQQGMRGAWGKPHGLAARVDIGQIIFSVRTKDSNKDVVVEGLRRARYKFPGQQKIILSKKWGFTNLDRPEYLKKREAGEVKDDGAFVKFLSKKGSLENNIREFPEYFAAQA
For B3, the binding result in assay [6] is given as “binds”.

B4: Arx1 (protein, UniProt Q03862 1-593)
chain: MALAISHEDTQILLKDKNILQESVLNKYRTAGQIAQTALKYVTSLINDSYHSKTTQRQLTVPELCLLTDSFILTRLEQYYKNKVNERGIAIPTTIDIDQISGGWCPEIDDTQNLLNWNKGKDSTFASSVTGTLRPGDLVKITLGVHIDGYTSEVSHTMVIYPVDETKPILQPTGPLLGGKADAVAAAHIAMETVVALLACALTPEKLPASLGGTSSGITGQLIRTIVDTIARSYNCGVVPGSRVRRIRRFLAGQNEGIVAEREYKGVVWTESHQEADLLSNTDAKDLTVVDRGQSTPFTNVSAIPSDDFVVQSGEVYLIDLKMASLEHCTKKGLVTLETVDSYTGKSHKAGELIARPGAYVRDFAQTHILKLKTSRQLLTKIDKQGVYPFKLSHLSSNFPFVHENEEELQSLKKDLKSFRLGMSEISNNYLCVESPIQIARWVPWDHILKATNPNGNLSYDATSTLTLPGHELPLPKLGVSAIKLKSLMNSTKESISLPVARECNTIVLCDSSVSTTDRPELLRLTGGSKTCQPSWIHSQHELNPQDSIVQGIFQLATLAKDKRFGLLLKETQPMKQKSVETSNGGVEETMKM
With B4, the binding result in assay [1] is on record as “binds”.

B5: Rei1 (protein, UniProt P38344 1-393)
chain: MSSSGVYTCNSCVLTFDSSDEQRAHMKSDWHRYNLKRRVAQLPPISFETFDSKVSAAAASTSKSAEKEKPVTKKELKRREKQALLEKKKKLLEIARANMLENMQKSQEGNTPDLSKLSLQENEENKEKEEPKKEEPEQLTEEEMAERVMQEKLRNRVDIPLEQCLFCEHNKHFKDVEENLEHMFRTHGFYIPEQKYLVDKIGLVKYMSEKIGLGNICIVCNYQGRTLTAVRQHMLAKRHCKIPYESEDERLEISEFYDFTSSYANFNSNTTPDNEDDWEDVGSDEAGSDDEDLPQEYLYNDGIELHLPTGIKVGHRSLQRYYKQDLKPEVILTEGQGTLVAAETRSFLPAFDKKGVQTQQRVWQTERFDKKRLDKRSAKFVNNQPHYRDQLLQ
Regarding B5, the binding entry in assay [2] and in assay [3] was “binds” each time.

B6: Rei1, P38344 1-393 (protein)
chain: MSSSGVYTCNSCVLTFDSSDEQRAHMKSDWHRYNLKRRVAQLPPISFETFDSKVSAAAASTSKSAEKEKPVTKKELKRREKQALLEKKKKLLEIARANMLENMQKSQEGNTPDLSKLSLQENEENKEKEEPKKEEPEQLTEEEMAERVMQEKLRNRVDIPLEQCLFCEHNKHFKDVEENLEHMFRTHGFYIPEQKYLVDKIGLVKYMSEKIGLGNICIVCNYQGRTLTAVRQHMLAKRHCKIPYESEDERLEISEFYDFTSSYANFNSNTTPDNEDDWEDVGSDEAGSDDEDLPQEYLYNDGIELHLPTGIKVGHRSLQRYYKQDLKPEVILTEGQGTLVAAETRSFLPAFDKKGVQTQQRVWQTERFDKKRLDKRSAKFVNNQPHYRDQLLQ
Consider B6, for which, in assay [7], the binding result is listed as “binds”.
